## Results from one PubChem assay

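Luminescence from an EWS-FLI1 target-promoter (NR0B1) reporter, set against a CMV-promoter reporter, two days after silencing single genes in TC32 Ewing sarcoma cells.
Each siRNA was applied at 20 nM.
A z-score of the log NR0B1-over-CMV signal, less the median of siRNAs with the same seed; more negative means a stronger specific loss of the NR0B1 reporter.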

This is part of the screen; most of the strongest results are not listed here.
Sequences are the guide (antisense) strand, without overhang.

With UAUCAUUGCAGAUAUGUGG against GSDMA the assay gave seed-corrected z-score -0.4756.
With UCGCUUAUCAAAUAGAGGC against NAP1L1 the assay gave seed-corrected z-score -0.3099.
With UAAUGGUCACCAUAGUGCC against PLXNA2 the assay gave seed-corrected z-score -0.07924.
With UUAAUGACACUAUGGACAG against GALNT1 the assay gave seed-corrected z-score 0.8069.
With UCCAUGAUAUGCAUAUUCC against LNPEP the assay gave seed-corrected z-score -0.4757.
With AUACUGCUUAGAUAAUUUU against TTC7A the assay gave seed-corrected z-score -0.6165.
With AAGAAAAUUAGCUUUAUGU against SPDYE2B the assay gave seed-corrected z-score 0.3839.
With UUCGGGACCCAGGUGAUUG against TONSL the assay gave seed-corrected z-score -0.5249.
With UCAUAUCCCAUCAAUUCGG against HIF1A the assay gave seed-corrected z-score -0.7573.
With UGUAAUACUGCUUCAAACC against DDX20 the assay gave seed-corrected z-score -0.7421.
With UUAGGUCUUUCGCUAAAGC against RPS6KA5 the assay gave seed-corrected z-score -0.5785.
With UAAGCUUCCUGAUUAGUUC against DHX40 the assay gave seed-corrected z-score 0.707.
With UCAGGGACCUUAUAUUUGC against GSTT1 the assay gave seed-corrected z-score -0.3196.
With UUCCCAAUGAGUUAGGAGC against ORMDL1 the assay gave seed-corrected z-score -0.0007201.
With UUGAGUAUGUGUUUCGGUG against HS6ST1P1 the assay gave seed-corrected z-score -0.4954.
With UAAAGCCCGGUCAUCAGCG against SLC26A1 the assay gave seed-corrected z-score 0.02946.
With UCUCGUACUGCUGGUCUCG against TNFRSF25 the assay gave seed-corrected z-score -0.565.
With UUCGAACUCAGCAAGCUUC against DLEC1 the assay gave seed-corrected z-score -0.1574.
With UAGGAUCUCAGGUAGGCUG against FANCD2 the assay gave seed-corrected z-score -0.4815.
With UUGACUUAAAAAUCGGCUC against ATR the assay gave seed-corrected z-score -0.3321.
With UUCGUACUUGUUGCUGUGC against FAM3A the assay gave seed-corrected z-score -0.08228.
With ACCGUGAUAAACACCACCG against OR10AG1 the assay gave seed-corrected z-score 0.2267.
With UACUUCUCGAUGAAGGAGC against RAP2B the assay gave seed-corrected z-score -0.2406.
With UUGGGAUCGUGGGUUUGAC against RPL29P32 the assay gave seed-corrected z-score -0.1584.
With UUACUGAGAAUGUUCAGGG against LOC388572 the assay gave seed-corrected z-score -0.9559.
With AUAUCGAUCAGCUCCACGG against TMED6 the assay gave seed-corrected z-score -0.3173.
With UAAAUCAGAGGGUUCAACA against OR8G1 the assay gave seed-corrected z-score 0.996.
With UCCUGUUAAAUACAUAACG against C5orf28 the assay gave seed-corrected z-score -0.7347.
With AACCUCACAAAACAUGCCC against TMC1 the assay gave seed-corrected z-score 0.06887.
With UGUAUUUCGUGAACCACUC against MRTO4 the assay gave seed-corrected z-score -0.1596.
With AAUGUCGAAAUCACUAGGG against DNAH12 the assay gave seed-corrected z-score -0.09829.
With AAUUGUGCAUUUCUCAUCU against RNF165 the assay gave seed-corrected z-score 1.419.
With UUAAGUGCAGCACUGAUCG against APOF the assay gave seed-corrected z-score 0.4043.
With UUUUGCUCCAGUUAAAGGC against MMP2 the assay gave seed-corrected z-score 0.4605.
With AAACUUACUAUUGUAGCCC against ZNF224 the assay gave seed-corrected z-score -1.488.
With UACUCGUCCAGUGCCGACU against RPS19BP1 the assay gave seed-corrected z-score -0.06143.
With AAGAGUAAUAUCUUUAUCC against KIF5B the assay gave seed-corrected z-score 0.4483.
With AGACAGUUAAAUCCUGCCC against LOC644090 the assay gave seed-corrected z-score -0.4861.
With AUCUGGGCCGUAAUUGUUG against LSP1P3 the assay gave seed-corrected z-score 0.9104.
With UAAAUAAUGGGAUUCAGCA against OR52B4 the assay gave seed-corrected z-score 0.01625.
With UCUUGUACUCUCUUGUUGC against TNPO1 the assay gave seed-corrected z-score 0.2595.
With UAGCUGACUGAUGAAGUCC against TNRC18 the assay gave seed-corrected z-score -0.01476.
With UCAUCAUCCUCAUAGAACC against NFKB2 the assay gave seed-corrected z-score -0.02708.
With UUAACUUUAACCUGUACAC against TOP3A the assay gave seed-corrected z-score 0.4318.
With UCGUGGUGAUGUAAUAUGC against SGMS1 the assay gave seed-corrected z-score -0.1801.

Repeated from the top, 5 entries:

* UAUCAUUGCAGAUAUGUGG against GSDMA | seed-corrected z-score -0.4756
* UCGCUUAUCAAAUAGAGGC against NAP1L1 | seed-corrected z-score -0.3099
* UAAUGGUCACCAUAGUGCC against PLXNA2 | seed-corrected z-score -0.07924
* UUAAUGACACUAUGGACAG against GALNT1 | seed-corrected z-score 0.8069
* UCCAUGAUAUGCAUAUUCC against LNPEP | seed-corrected z-score -0.4757

Data taken from PubChem BioAssay AID1159506, deposited by NCATS (2015).